The record followed here is US20260217768A1, “NANOPARTICLE-NHE3 PEPTIDE TO TREAT DIARRHEA” (The Johns Hopkins University, priority 2023, published 2026).

The data set has as its system mouse jejunum. The note with it: in vivo.

With “CP-1: 21 aa control peptide representing aa 585-605 of rabbit NHE3 (YLLRESASAVCLDMQSLEQRR; UniProt P26432 585-605, looked up, fragment)”, the “localization of peptide in CTx-treated jejunum” value is “remained at the BB”.

For the substance “NHE3 mimetic peptide, rabbit NHE3 aa 568-605: NVDFSTPRPSTVEASVSYLLRESASAVCLDMQSLEQRR [Peptide N3SP-1]”, the “localization of peptide in CTx-treated jejunum” value is listed as “visible intracellular accumulation”.
